US20190315873A1 (AGOMAB THERAPEUTICS, published 2019)

Legend:
[1] = biological target: human-llama chimeric MET ECD CH6; assay: ELISA on MET chimera
[2] = biological target: human-llama chimeric MET ECD CH7; assay: ELISA on MET chimera
[3] = biological target: llama MET ECD (llama); assay: ELISA on llama MET ECD
[4] = biological target: T1, human MET ECD (human, UniProt P08581 25-932); assay: ELISA on MET ECD or chimera
T1 construct: range 1-932; recombinant ECD made by standard protein engineering; also called hMET; human MET extracellular domain

[5] = biological target: llama-human chimeric MET ECD CH1; assay: ELISA on MET ECD or chimera
[6] = biological target: llama-human chimeric MET ECD CH2; assay: ELISA on MET ECD or chimera
[7] = biological target: llama-human chimeric MET ECD CH3; assay: ELISA on MET ECD or chimera
[8] = biological target: llama-human chimeric MET ECD CH4; assay: ELISA on MET ECD or chimera
[9] = biological target: llama-human chimeric MET ECD CH5; assay: ELISA on MET ECD or chimera
[10] = biological target: T1, human MET ECD; assay: ELISA on MET ECD (FIG. 29)
[11] = biological target: T2, mouse MET ECD (mouse, UniProt P16056 25-931); assay: ELISA on MET ECD (FIG. 29)
T2 construct: range 1-931; recombinant ECD; also called mMET; mouse MET extracellular domain

[12] = biological target: T1, human MET ECD; assay: ELISA on MET ECD
[13] = biological target: T2, mouse MET ECD; assay: ELISA on MET ECD
[14] = biological target: T1, human MET ECD; assay: ELISA: MET ECD immobilized (100 ng/well), mAb in human IgG1/lambda format in solution (0-40 nM), HRP anti-human Fc
[15] = biological target: T2, mouse MET ECD; assay: as above
[16] = biological target: llama-human chimeric MET ECD CH3; assay: ELISA on MET chimera
[17] = biological target: llama-human chimeric MET ECD CH4; assay: ELISA on MET chimera
[18] = biological target: llama-human chimeric MET ECD CH5; assay: ELISA on MET chimera
[19] = biological target: human-llama chimeric MET ECD CH6; assay: ELISA on MET ECD or chimera
[20] = biological target: human-llama chimeric MET ECD CH7; assay: ELISA on MET ECD or chimera

B1: 76H10 llama-human chimeric mAb (human IgG1/lambda) (antibody, V domains shown)
VH: QLQLVESGGGLVQPGGSLRVSCTASGFTFNTYYMTWVRQAPGKGLEWVSDINSGGGTYYADSVKGRFTISRDNAKNTLYLQMNSLKPEDTALYYCVRVRIWPVGYDYWGQGTQVTVSS
VL: QAVVTQEPSLSVSPGGTVTLTCGLSSGSVTTSNYPGWFQQTPGQAPRTLIYNTNNRHSGVPSRFSGSISGNKAALTITGAQPEDEADYYCSLYTGSYTTVFGGGTHLTVLQ
[1]
  binding: no binding (tested: 0-20 nM)
[2]
  binding: no binding (tested: 0-20 nM)
[3]
  binding: no binding (tested: 0-20 nM)
[4]
  binding: binds
[5]
  binding: binds
[6]
  binding: binds
[7]
  binding: binds
[8]
  binding: binds
[9]
  binding: binds
[10]
  binding: binds
[11]
  binding: binds
[12]
  binding: binds
[13]
  binding: binds
[14]
  binding: binds
[15]
  binding: binds

B2: 76G7 llama-human chimeric mAb (human IgG1/lambda) (antibody, V domains shown)
VH: QVQLVESGGNLVQPGGSLRLSCAASGFTFSNYYMSWVRQAPGKGLEWVSDIYSDGSTTWYSDSVKGRFTISRDNAKNTLSLQMNSLKSEDTAVYYCARVKIYPGGYDAWGQGTQVTVSS
VL: QAGLTQPPSVSGSPGKTVTISCAGNSSDVGYGNYVSWYQQFPGMAPKLLIYLVNKRASGITDRFSGSKSGNTASLTISGLQSEDEADYYCASYTGSNNIVFGGGTHLTVLQ
[1]
  binding: no binding (tested: 0-20 nM)
[2]
  binding: no binding (tested: 0-20 nM)
[3]
  binding: no binding (tested: 0-20 nM)
[4]
  binding: binds
[5]
  binding: binds
[6]
  binding: binds
[7]
  binding: binds
[8]
  binding: binds
[9]
  binding: binds
[12]
  binding: binds
[13]
  binding: binds

B3: 72F8 llama-human chimeric mAb (human IgG1/lambda) (antibody, V domains shown)
VH: ELQLVESGGGLVQPGGSLRLSCAASGFTFSNYVMSWVRQAPGKGLEWVSDTNSGGSTSYADSVKGRFTISRDNAKNTLYLQMNSLKPEDTALYYCARSFFYGMNYWGKGTQVTVSS
VL: QSALTQPPSLSASPGSSVRLTCTLSSGNNIGSYDISWYQQKAGSPPRYLLNYYTDSRKHQDSGVPSRFSGSKDASANAGLLLISGLQPEDEADYYCSAYKSGSYRWVFGGGTHVTVLQ
[16]
  binding: no binding (tested: 0-20 nM)
[17]
  binding: no binding (tested: 0-20 nM)
[18]
  binding: no binding (tested: 0-20 nM)
[3]
  binding: no binding (tested: 0-20 nM)
[4]
  binding: binds
[19]
  binding: binds
[20]
  binding: binds
[5]
  binding: binds
[6]
  binding: binds
[12]
  binding: binds
[13]
  binding: binds

These are yes or no findings as the source states them, for the method shown. For some of these results: Binding calls can cover weak binding; strength is not graded here.
